Data published in publication doi:10.1101/2023.12.07.570680.

Target: WTF1 (yeast two-hybrid fusion, transit peptide removed)
Experiment: two-hybrid

B1: EMB1006 (yeast two-hybrid fusion, transit peptide removed) (protein, UniProt Q9FGR7 45-723)
chain: ATSPSSSSSSPSIFLSCFDDALPDKIQQPENSTINSEESECEEEDDEEGDDFTDPILKFFKSRTLTSESTADPARESKFSLQKNRRTSWHLAPDFADPETEIESKPEESVFVTNQQTLGVHIPFESGVAREILELAKNLKENQTLGEMLSGFERRVSDTECVEALVMMGESGFVKSCLYFYEWMSLQEPSLASPRACSVLFTLLGRERMADYILLLLSNLPDKEEFRDVRLYNAAISGLSASQRYDDAWEVYEAMDKINVYPDNVTCAILITTLRKAGRSAKEVWEIFEKMSEKGVKWSQDVFGGLVKSFCDEGLKEEALVIQTEMEKKGIRSNTIVYNTLMDAYNKSNHIEEVEGLFTEMRDKGLKPSAATYNILMDAYARRMQPDIVETLLREMEDLGLEPNVKSYTCLISAYGRTKKMSDMAADAFLRMKKVGLKPSSHSYTALIHAYSVSGWHEKAYASFEEMCKEGIKPSVETYTSVLDAFRRSGDTGKLMEIWKLMLREKIKGTRITYNTLLDGFAKQGLYIEARDVVSEFSKMGLQPSVMTYNMLMNAYARGGQDAKLPQLLKEMAALNLKPDSITYSTMIYAFVRVRDFKRAFFYHKMMVKSGQVPDPRSYEKLRAILEDKAKTKNRKDKTAILGIINSKFGRVKAKTKGKKDEFWKYKTNRTTSPGRHRS
  binding: no binding

Results are given in words; binding and its absence hold for the method and conditions named. Where a sequence is shown, tags or fusion partners need not be part of it.
